Earlier results as cited in US20250283018A1, “TOILET RIM BLOCKS WITH SCENT CHANGE” (SYMRISE AG, priority 2021, published 2025).
Read-outs that look alike come from different tables or passages of the source.

Experiments:
[1] = not given; remark: listed apart in the source

## CCCCCCCC1CCC(=O)O1 (stereo not shown) [ALDEHYD C14 SOG]
Table 1, components of MARINA
  Bp. [° C.]: 286 °C
Table 2, components of PEACH
  Bp. [° C.]: 286 °C
[1]; Table 1, components of MARINA
  logP: 3.06
[1]; Table 2, components of PEACH
  logP: 3.06
